# In the supplement of paper PMC6411743:
# ± gives the standard deviation of the averaged measurements. This is a selection; strong and weak results do not stand in their true shares.
# Key:
# Test in all cases: NP40-soluble protein abundance relative to vehicle (solubility fold change) (ratio); higher = more soluble protein in presence of ATP
# UBLCP1 = molecular target: T1, UBLCP1 (UniProt Q8WVY7)
# T1 sequence (whole entry): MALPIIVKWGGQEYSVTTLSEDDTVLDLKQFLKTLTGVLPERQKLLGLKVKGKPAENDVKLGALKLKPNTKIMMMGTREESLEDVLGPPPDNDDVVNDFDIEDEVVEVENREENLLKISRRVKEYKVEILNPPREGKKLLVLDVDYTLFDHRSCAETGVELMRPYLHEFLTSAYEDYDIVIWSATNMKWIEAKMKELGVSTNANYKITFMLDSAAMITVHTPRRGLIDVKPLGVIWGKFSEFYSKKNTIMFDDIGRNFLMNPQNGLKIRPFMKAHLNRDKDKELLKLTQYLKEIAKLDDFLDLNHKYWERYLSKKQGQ
# How it was run: (§1)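 Jurkat crude lysate prepared with a Dounce homogeniser was treated at eight concentrations spanning 0.1 to 10 mM, 10 min at room temperature then 3 min at 37 °C. Solubilisation with 0.8% NP40 and benzonase and ultracentrifugation preceded TMT labelling of the supernatant for LC-MS/MS. Fold change against the detergent-processed vehicle was determined per replicate from vsn-normalised intensities, across three independent experiments.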
# [1] = molecular target: T2, UniProt Q8TBA6 and related entries
# T2 sequence (whole entry): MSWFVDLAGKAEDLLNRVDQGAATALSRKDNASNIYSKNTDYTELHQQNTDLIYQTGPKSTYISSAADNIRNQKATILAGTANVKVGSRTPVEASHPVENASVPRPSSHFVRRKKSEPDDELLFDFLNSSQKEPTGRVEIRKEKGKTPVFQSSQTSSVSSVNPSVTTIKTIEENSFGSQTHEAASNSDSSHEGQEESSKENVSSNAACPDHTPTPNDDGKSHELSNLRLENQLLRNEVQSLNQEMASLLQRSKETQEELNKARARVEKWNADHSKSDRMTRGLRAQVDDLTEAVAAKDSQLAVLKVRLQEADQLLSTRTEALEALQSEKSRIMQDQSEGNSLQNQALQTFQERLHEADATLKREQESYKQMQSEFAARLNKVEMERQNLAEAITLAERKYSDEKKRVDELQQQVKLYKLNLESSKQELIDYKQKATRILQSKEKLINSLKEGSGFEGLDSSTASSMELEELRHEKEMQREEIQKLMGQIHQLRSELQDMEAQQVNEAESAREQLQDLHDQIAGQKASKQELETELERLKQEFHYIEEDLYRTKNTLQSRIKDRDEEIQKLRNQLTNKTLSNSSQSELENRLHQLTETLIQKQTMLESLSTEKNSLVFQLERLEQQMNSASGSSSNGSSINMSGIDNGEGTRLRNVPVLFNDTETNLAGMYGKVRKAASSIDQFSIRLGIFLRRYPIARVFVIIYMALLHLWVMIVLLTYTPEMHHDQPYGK
# How it was run: as §1
# UniProt Q8WWW0-2 = molecular target: T3, UniProt Q8WWW0-2
# T3 sequence (whole entry): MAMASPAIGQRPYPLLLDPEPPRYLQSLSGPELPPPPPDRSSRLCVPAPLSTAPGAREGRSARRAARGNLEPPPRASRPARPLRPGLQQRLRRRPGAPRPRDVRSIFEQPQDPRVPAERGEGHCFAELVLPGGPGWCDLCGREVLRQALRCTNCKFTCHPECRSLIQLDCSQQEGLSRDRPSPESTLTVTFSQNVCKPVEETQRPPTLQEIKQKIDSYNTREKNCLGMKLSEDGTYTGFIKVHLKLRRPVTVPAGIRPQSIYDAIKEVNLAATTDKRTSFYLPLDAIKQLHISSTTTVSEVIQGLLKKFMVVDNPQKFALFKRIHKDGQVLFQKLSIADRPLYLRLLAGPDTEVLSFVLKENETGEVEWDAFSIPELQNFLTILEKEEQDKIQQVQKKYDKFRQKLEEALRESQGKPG
# How it was run: as §1
# [2] = molecular target: T4, UniProt Q8WYQ5 and related entries
# T4 sequence (whole entry): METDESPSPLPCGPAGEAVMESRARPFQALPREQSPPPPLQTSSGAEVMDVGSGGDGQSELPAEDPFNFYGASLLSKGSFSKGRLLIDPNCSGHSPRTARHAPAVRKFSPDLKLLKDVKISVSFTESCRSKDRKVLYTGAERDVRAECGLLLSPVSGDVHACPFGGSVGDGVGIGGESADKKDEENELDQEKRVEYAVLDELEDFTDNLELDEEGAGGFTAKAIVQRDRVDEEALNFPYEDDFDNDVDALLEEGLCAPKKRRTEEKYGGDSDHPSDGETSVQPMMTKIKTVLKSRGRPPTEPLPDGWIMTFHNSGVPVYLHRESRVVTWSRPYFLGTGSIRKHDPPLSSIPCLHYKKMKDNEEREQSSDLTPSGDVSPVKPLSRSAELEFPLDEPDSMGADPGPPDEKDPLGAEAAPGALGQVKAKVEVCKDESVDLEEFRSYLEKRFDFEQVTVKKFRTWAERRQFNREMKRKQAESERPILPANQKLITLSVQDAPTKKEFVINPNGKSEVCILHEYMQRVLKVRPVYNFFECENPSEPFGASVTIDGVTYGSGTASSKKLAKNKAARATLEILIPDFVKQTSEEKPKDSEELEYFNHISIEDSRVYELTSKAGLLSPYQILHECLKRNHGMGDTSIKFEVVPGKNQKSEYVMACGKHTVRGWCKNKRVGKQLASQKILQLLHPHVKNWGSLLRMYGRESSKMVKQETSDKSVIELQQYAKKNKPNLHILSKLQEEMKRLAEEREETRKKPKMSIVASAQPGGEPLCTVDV
# How it was run: as §1
smiles,measurement,setting,value
Nc1ncnc2c1ncn2[C@@H]1O[C@H](COP(=O)(O)OP(=O)(O)OP(=O)(O)O)[C@@H](O)[C@H]1O [adenosine triphosphate],NP40-soluble protein abundance,UBLCP1; concentration: 8mM,0.997 ± 0.048
same,NP40-soluble protein abundance,UBLCP1; concentration: 10mM,1.02 ± 0.095
same,NP40-soluble protein abundance,[1]; concentration: 1mM,0.9738 ± 0.0087
same,NP40-soluble protein abundance,[1]; concentration: 2mM,0.964 ± 0.019
same,NP40-soluble protein abundance,[1]; concentration: 4mM,0.953 ± 0.032
same,NP40-soluble protein abundance,[1]; concentration: 6mM,1 ± 0.048
same,NP40-soluble protein abundance,[1]; concentration: 8mM,0.937 ± 0.03
same,NP40-soluble protein abundance,[1]; concentration: 10mM,0.925 ± 0.026
same,NP40-soluble protein abundance,UniProt Q8WWW0-2; concentration: 1mM,0.945 ± 0.025
same,NP40-soluble protein abundance,UniProt Q8WWW0-2; concentration: 2mM,0.984 ± 0.034
same,NP40-soluble protein abundance,UniProt Q8WWW0-2; concentration: 4mM,0.976 ± 0.011
same,NP40-soluble protein abundance,UniProt Q8WWW0-2; concentration: 6mM,0.944 ± 0.025
same,NP40-soluble protein abundance,UniProt Q8WWW0-2; concentration: 8mM,0.965 ± 0.019
same,NP40-soluble protein abundance,UniProt Q8WWW0-2; concentration: 10mM,0.974 ± 0.018
same,NP40-soluble protein abundance,[2]; concentration: 1mM,1.17 ± 0.088
same,NP40-soluble protein abundance,[2]; concentration: 2mM,1.25 ± 0.11
same,NP40-soluble protein abundance,[2]; concentration: 4mM,1.22 ± 0.072

# 2 entries from above, tab-delimited.
smiles	measurement	setting	value
Nc1ncnc2c1ncn2[C@@H]1O[C@H](COP(=O)(O)OP(=O)(O)OP(=O)(O)O)[C@@H](O)[C@H]1O [adenosine triphosphate]	NP40-soluble protein abundance	UniProt Q8WWW0-2; concentration: 8mM	0.965 ± 0.019
same	NP40-soluble protein abundance	[2]; concentration: 2mM	1.25 ± 0.11
